Measured values reported in paper PMC8018994.
These are yes or no findings as the source states them, for the method shown. Binding seen in cells or lysates may run through a third protein. Some binding calls cover weakened binding; strength is not graded here.

Protein sequences, listed by entry. Tags and fused reporters are not part of them. Residues count along the entry.
UniProt P22646, residues 22-189: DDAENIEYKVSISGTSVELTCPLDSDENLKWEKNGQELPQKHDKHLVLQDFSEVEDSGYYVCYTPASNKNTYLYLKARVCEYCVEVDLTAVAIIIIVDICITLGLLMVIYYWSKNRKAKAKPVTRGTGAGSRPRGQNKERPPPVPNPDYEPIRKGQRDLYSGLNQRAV
UniProt P35951, residues 22-862: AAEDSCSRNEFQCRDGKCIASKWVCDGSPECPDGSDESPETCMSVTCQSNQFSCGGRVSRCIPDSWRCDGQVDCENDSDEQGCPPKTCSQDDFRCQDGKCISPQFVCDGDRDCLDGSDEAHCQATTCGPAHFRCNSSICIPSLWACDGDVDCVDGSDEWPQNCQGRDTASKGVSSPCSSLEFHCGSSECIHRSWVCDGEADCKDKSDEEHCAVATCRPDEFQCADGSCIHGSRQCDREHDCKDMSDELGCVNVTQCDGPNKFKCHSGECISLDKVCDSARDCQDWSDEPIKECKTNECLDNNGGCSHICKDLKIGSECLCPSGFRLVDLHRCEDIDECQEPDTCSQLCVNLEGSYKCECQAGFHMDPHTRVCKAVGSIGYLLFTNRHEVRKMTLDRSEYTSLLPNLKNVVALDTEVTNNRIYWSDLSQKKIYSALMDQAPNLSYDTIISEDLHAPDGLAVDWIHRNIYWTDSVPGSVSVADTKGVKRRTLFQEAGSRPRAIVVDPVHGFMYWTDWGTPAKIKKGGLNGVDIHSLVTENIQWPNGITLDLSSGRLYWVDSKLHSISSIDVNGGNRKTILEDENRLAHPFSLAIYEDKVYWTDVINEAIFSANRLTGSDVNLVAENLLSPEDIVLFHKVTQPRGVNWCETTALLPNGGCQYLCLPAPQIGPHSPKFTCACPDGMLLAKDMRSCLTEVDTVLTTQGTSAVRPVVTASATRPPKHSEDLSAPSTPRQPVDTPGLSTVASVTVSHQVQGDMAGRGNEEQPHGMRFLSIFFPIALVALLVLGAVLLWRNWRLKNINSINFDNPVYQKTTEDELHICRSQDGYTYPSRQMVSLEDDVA

Target: CD3ε (mouse (endogenous in CTLs)) (UniProt P22646)
Test: co-IP; CTLs lysed in 0.25% digitonin lysis buffer (50 mmol/L Tris-HCl pH 7.4, 155 mmol/L NaCl, 5 mmol/L EDTA); CD3ε immunoprecipitated, LDLR detected by immunoblotting

**Q.** With “low-density lipoprotein receptor (LDLR) (from UniProt P35951 22-862)” as the substance, how does the binding read?
**A.** binds
